Data as given in PubChem BioAssay AID652243 (Drosophila RNAi Screening Center, 2013)
Aim: 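Fly regulators of androgen-dependent reporter output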 (primary screen). Cells: Drosophila S2R+ cells. Reagent: long dsRNA against Drosophila genes. Timing: 72 h (48 h, then 24 h hormone). Challenge: synthetic androgen R1881 at 10 nM for 24 h. Measured: 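Per-well raw luminescence of the androgen-driven firefly reporter and of the Renilla control, two replicates each, without normalisation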. Scale: firefly reporter light: higher = more light from androgen-responsive reporter; Renilla control light: higher = more constitutive control signal (cell number, transfection). Hit rule: 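Hit when the log firefly-to-Renilla ratio dropped or increased by a fixed fold versus the mean of GFP or LacZ controls across duplicate plates; lowering cut given as 1.5 and as 3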. Meaning of the calls: active = hit: reporter lowered or raised; inactive = no hit.
In all, the deposit lists about 24,000 reagents; below is a random part of those that have a named target and a result. In the full data, 246 (1%) got an active call. 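Plates not normalised; calls are printed but the firefly/Renilla ratio behind them is not deposited; fold cut for lowering reported inconsistently.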 Raw values are not corrected between plates. Unmarked entries are inactive. A plus sign joins genes that one reagent is predicted to hit. Not given: the amount of reagent.

| gene knocked down | PubChem SID | firefly reporter light, replicate 1 | firefly reporter light, replicate 2 | Renilla control light, replicate 1 | Renilla control light, replicate 2 |
| --- | --- | --- | --- | --- | --- |
| Ilp3 | SID104189960 | 3.71e5 | 3.21e5 | 3.49e6 | 2.83e6 |
| CG13339 | SID104186165 | 98299 | 74168 | 1.30e6 | 1.30e6 |
| CG12384 | SID104185937 | 6.16e5 | 7.60e5 | 1.73e6 | 2.05e6 |
| CG12384 | SID104207257 | 2.78e5 | 3.16e5 | 1.29e6 | 1.55e6 |
| opm | SID104199933 | 1.09e5 (active) | 63138 | 1.19e6 | 9.69e5 |
| opm | SID104201688 | 4.71e5 | 5.84e5 | 1.64e6 | 1.50e6 |
| opm | SID104208119 | 4.07e5 | 3.97e5 | 5.22e5 | 5.22e5 |
| CG31698 | SID104201757 | 5.76e5 | 6.26e5 | 1.96e6 | 1.84e6 |
| CG31698 | SID104207107 | 3.55e5 | 6.09e5 | 9.00e5 | 1.36e6 |
| GstE12 | SID104183839 | 1.31e5 | 2.30e5 | 1.22e6 | 1.18e6 |
| GstE12 | SID104205825 | 2.79e5 | 2.72e5 | 6.23e5 | 6.30e5 |
| CG33679 | SID104216488 | 7.96e5 | 7.34e5 | 2.13e6 | 1.96e6 |
| CG34460 | SID104186766 | 83500 | 95112 | 9.81e5 | 9.81e5 |
| gol | SID104184481 | 9.93e5 | 8.97e5 | 2.15e6 | 2.37e6 |
| Nepl12 | SID104196203 | 1.01e5 | 1.69e5 | 2.50e6 | 2.12e6 |
| CG9380 | SID104184341 | 5.12e5 | 2.58e5 | 2.15e6 | 1.60e6 |
| CG9759 | SID104196350 | 1.04e5 | 57549 | 4.66e5 | 4.00e5 |
| CG9759 | SID104204885 | 3.16e5 | 2.69e5 | 1.06e6 | 9.72e5 |
| CG15546 | SID104194876 | 2.99e5 | 2.17e5 | 1.99e6 | 2.38e6 |
| CG15546 | SID104202190 | 4.04e5 | 6.47e5 | 1.07e6 | 2.17e6 |
| CG15546 | SID104207443 | 4.34e5 | 3.95e5 | 1.24e6 | 1.34e6 |
| CG34220 | SID104216186 | 7.10e5 | 6.58e5 | 1.79e6 | 1.95e6 |
| RpS7 | SID104195186 | 2.22e5 | 2.20e5 | 1.51e6 | 2.14e6 |
| RpS7 | SID104207012 | 2.29e5 (active) | 3.05e5 | 8.68e5 | 1.30e6 |
| CG5440 | SID104180477 | 89416 | 1.12e5 | 9.58e5 | 6.86e5 |
| CG5440 | SID104207973 | 4.82e5 | 6.56e5 | 9.03e5 | 9.03e5 |
| Acp29AB | SID104181649 | 1.63e5 | 1.92e5 | 9.45e5 | 7.86e5 |

Next part, starting with the last 8 of the part before.
| gene knocked down | PubChem SID | firefly reporter light, replicate 1 | firefly reporter light, replicate 2 | Renilla control light, replicate 1 | Renilla control light, replicate 2 |
| --- | --- | --- | --- | --- | --- |
| CG15546 | SID104202190 | 4.04e5 | 6.47e5 | 1.07e6 | 2.17e6 |
| CG15546 | SID104207443 | 4.34e5 | 3.95e5 | 1.24e6 | 1.34e6 |
| CG34220 | SID104216186 | 7.10e5 | 6.58e5 | 1.79e6 | 1.95e6 |
| RpS7 | SID104195186 | 2.22e5 | 2.20e5 | 1.51e6 | 2.14e6 |
| RpS7 | SID104207012 | 2.29e5 (active) | 3.05e5 | 8.68e5 | 1.30e6 |
| CG5440 | SID104180477 | 89416 | 1.12e5 | 9.58e5 | 6.86e5 |
| CG5440 | SID104207973 | 4.82e5 | 6.56e5 | 9.03e5 | 9.03e5 |
| Acp29AB | SID104181649 | 1.63e5 | 1.92e5 | 9.45e5 | 7.86e5 |
| CG8677 | SID104182899 | 4.99e5 (active) | 4.96e5 | 2.53e6 | 2.03e6 |
| CG8677 | SID104202794 | 8.47e5 | 8.55e5 | 9.29e5 | 9.08e5 |
| yellow-c + CIAPIN1 | SID104181690 | 1.77e5 | 1.46e5 | 1.85e6 | 1.94e6 |
| comt | SID104200111 | 5.60e5 | 3.94e5 | 3.78e6 | 2.61e6 |
| comt | SID104203764 | 3.87e5 | 2.95e5 | 4.95e5 | 3.70e5 |
| RhoGAP92B | SID104194299 | 3.62e5 | 3.63e5 | 2.63e6 | 2.95e6 |
| RhoGAP92B | SID104195429 | 1.82e5 | 1.91e5 | 2.76e6 | 2.56e6 |
| CG15800 | SID104184063 | 2.30e5 | 2.27e5 | 1.83e6 | 1.63e6 |
| Rcd5 | SID104187972 | 1.27e6 | 1.34e6 | 4.10e5 | 2.86e5 |
| Rcd5 | SID104206332 | 2.31e5 | 2.53e5 | 1.53e5 | 2.05e5 |
| Mlp60A | SID104184415 | 2.18e5 | 2.94e5 | 1.25e6 | 1.64e6 |
| Mlp60A | SID104201761 | 6.97e5 | 6.53e5 | 1.71e6 | 1.33e6 |
| Mlp60A | SID104201936 | 6.39e5 | 9.38e5 | 2.22e5 | 2.47e5 |
| CG9897 + asRNA:CR42742 | SID104184387 | 2.86e5 | 4.27e5 | 2.13e6 | 1.92e6 |
| scpr-A + scpr-C + scpr-B | SID104195507 | 1.68e5 | 1.54e5 | 2.49e6 | 1.30e6 |
| lncRNA:CR40469 + lncRNA:CR34335 | SID104216330 | 6.66e5 | 8.06e5 | 1.27e6 | 1.94e6 |
| Osi3 | SID104191967 | 34557 | 55244 | 1.28e6 | 1.17e6 |
| sna | SID104183405 | 1.65e5 | 1.93e5 | 1.74e6 | 1.90e6 |
| spd-2 | SID104189474 | 36479 | 32854 | 3.78e5 | 2.36e5 |
| spd-2 | SID104205306 | 2.73e5 | 2.43e5 | 5.18e5 | 5.40e5 |
| CG42512 + CG32573 | SID104199324 | 6.42e5 | 5.91e5 | 3.56e6 | 3.05e6 |
| CG42512 + CG32573 | SID104199698 | 1.97e5 | 1.55e5 | 1.50e6 | 1.52e6 |
| CG42512 + CG32573 | SID104202142 | 7.20e5 | 9.79e5 | 1.12e6 | 1.33e6 |
| Pex1 | SID104191150 | 1.30e6 | 1.11e6 | 1.44e6 | 1.10e6 |
| CG7201 | SID104190578 | 2.50e5 | 2.28e5 | 3.30e6 | 2.31e6 |
| MICU3 | SID104193173 | 1.73e5 | 39940 | 2.42e5 | 88613 |
| MICU3 | SID104195405 | 1.20e5 | 1.21e5 | 1.10e6 | 1.38e6 |
| ari-2 | SID104184464 | 2.07e5 | 2.66e5 | 1.89e6 | 1.18e6 |
| ari-2 | SID104206440 | 5.56e5 | 3.90e5 | 1.95e6 | 1.41e6 |
| CG40249 (retired record) | SID104215437 | 4.72e5 | 4.87e5 | 1.40e6 | 1.49e6 |
| Iyd | SID104190406 | 2.31e5 | 2.68e5 | 2.78e6 | 2.21e6 |
| Iyd | SID104190407 | 1.88e5 | 1.78e5 | 3.02e6 | 1.89e6 |
